The results in this text go back to PMC10500460.

Amino acid sequences for entries named in this document (tags omitted).
UniProt Q96CW1: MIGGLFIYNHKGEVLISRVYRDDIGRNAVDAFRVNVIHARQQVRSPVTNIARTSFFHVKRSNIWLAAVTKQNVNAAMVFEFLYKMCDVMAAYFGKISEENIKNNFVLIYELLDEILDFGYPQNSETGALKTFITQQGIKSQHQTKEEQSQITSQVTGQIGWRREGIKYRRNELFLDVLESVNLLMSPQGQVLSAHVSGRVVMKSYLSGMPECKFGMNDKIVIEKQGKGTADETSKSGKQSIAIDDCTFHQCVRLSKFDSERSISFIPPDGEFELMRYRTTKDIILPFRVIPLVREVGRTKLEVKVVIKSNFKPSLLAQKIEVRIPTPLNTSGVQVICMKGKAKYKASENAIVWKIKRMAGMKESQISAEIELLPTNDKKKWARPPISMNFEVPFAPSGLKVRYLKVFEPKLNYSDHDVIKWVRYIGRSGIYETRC
UniProt O00571: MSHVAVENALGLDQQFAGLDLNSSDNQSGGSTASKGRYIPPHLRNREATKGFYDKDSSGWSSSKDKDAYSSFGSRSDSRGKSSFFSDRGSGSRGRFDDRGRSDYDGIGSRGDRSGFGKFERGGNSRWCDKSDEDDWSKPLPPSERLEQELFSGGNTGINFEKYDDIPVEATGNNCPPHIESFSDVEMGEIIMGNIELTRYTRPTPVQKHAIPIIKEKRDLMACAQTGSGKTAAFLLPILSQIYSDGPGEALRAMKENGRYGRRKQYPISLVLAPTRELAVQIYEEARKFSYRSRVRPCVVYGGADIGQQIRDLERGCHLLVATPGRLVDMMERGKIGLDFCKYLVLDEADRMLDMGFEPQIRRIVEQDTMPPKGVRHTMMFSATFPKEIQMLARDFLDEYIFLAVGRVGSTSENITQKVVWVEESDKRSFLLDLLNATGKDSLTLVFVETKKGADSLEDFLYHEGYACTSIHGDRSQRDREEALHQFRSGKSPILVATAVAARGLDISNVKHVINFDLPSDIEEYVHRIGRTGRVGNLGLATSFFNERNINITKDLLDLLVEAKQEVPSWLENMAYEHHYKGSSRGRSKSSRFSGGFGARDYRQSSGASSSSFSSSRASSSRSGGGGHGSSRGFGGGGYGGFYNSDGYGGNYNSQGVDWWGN
UniProt Q12923: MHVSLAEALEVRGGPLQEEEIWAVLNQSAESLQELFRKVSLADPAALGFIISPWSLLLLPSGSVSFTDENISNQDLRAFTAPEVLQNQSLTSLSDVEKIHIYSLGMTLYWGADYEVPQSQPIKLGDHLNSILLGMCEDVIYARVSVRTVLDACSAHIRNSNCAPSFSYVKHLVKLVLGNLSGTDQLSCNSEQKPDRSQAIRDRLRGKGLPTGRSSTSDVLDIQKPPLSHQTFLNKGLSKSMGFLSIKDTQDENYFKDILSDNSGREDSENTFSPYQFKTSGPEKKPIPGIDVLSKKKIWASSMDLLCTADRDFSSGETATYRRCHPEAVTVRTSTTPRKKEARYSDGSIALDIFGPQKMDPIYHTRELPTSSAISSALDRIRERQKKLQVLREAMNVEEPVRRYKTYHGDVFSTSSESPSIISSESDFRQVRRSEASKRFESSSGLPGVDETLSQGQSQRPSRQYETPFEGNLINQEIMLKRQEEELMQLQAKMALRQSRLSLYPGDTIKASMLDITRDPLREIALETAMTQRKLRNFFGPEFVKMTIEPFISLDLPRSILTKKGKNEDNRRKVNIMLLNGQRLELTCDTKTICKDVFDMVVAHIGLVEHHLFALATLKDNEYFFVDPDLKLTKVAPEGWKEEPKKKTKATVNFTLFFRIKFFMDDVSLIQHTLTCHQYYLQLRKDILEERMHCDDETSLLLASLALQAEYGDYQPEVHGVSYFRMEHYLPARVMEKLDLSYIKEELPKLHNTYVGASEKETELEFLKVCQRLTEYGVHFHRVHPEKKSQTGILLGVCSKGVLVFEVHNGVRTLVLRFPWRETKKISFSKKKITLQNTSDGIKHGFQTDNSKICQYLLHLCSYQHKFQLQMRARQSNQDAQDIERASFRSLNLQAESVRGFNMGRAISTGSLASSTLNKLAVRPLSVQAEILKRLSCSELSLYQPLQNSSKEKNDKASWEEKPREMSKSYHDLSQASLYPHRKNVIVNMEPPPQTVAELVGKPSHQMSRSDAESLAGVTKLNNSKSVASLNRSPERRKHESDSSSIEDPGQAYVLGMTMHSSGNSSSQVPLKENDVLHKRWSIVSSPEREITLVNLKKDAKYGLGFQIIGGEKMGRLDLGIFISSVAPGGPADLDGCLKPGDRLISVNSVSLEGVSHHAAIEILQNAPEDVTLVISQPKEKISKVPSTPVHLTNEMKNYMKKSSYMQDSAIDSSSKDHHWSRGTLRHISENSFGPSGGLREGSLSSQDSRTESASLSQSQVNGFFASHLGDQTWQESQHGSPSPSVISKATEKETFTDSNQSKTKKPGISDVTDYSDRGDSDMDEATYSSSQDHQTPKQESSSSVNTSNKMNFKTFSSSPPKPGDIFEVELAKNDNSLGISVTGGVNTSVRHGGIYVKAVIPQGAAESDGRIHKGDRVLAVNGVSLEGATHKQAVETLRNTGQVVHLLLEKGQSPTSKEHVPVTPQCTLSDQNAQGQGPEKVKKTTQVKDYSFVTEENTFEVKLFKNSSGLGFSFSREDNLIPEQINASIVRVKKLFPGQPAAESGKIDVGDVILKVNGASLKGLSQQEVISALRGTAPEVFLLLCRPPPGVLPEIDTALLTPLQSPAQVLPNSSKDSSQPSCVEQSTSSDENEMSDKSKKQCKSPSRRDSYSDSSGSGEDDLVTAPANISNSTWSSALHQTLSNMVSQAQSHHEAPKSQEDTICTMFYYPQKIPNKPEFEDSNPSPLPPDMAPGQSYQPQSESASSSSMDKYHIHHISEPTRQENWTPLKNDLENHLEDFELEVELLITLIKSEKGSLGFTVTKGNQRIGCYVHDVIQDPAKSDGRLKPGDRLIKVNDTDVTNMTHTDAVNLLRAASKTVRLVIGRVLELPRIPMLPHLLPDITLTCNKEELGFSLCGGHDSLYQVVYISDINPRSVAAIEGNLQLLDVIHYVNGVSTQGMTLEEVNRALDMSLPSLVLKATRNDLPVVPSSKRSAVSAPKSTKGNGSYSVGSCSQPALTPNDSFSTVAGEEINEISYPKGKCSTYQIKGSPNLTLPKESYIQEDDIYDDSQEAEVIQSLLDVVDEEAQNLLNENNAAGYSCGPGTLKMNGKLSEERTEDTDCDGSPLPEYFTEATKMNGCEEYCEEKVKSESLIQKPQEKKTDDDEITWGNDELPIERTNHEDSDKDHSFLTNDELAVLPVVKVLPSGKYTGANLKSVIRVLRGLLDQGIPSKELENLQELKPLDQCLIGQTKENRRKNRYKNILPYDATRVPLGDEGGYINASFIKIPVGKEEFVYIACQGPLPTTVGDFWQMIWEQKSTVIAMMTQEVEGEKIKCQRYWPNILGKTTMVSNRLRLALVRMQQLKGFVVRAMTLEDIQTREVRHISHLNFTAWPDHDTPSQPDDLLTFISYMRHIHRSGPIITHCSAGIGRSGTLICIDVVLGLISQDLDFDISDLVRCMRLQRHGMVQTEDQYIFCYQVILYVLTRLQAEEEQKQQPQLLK
UniProt Q7Z333: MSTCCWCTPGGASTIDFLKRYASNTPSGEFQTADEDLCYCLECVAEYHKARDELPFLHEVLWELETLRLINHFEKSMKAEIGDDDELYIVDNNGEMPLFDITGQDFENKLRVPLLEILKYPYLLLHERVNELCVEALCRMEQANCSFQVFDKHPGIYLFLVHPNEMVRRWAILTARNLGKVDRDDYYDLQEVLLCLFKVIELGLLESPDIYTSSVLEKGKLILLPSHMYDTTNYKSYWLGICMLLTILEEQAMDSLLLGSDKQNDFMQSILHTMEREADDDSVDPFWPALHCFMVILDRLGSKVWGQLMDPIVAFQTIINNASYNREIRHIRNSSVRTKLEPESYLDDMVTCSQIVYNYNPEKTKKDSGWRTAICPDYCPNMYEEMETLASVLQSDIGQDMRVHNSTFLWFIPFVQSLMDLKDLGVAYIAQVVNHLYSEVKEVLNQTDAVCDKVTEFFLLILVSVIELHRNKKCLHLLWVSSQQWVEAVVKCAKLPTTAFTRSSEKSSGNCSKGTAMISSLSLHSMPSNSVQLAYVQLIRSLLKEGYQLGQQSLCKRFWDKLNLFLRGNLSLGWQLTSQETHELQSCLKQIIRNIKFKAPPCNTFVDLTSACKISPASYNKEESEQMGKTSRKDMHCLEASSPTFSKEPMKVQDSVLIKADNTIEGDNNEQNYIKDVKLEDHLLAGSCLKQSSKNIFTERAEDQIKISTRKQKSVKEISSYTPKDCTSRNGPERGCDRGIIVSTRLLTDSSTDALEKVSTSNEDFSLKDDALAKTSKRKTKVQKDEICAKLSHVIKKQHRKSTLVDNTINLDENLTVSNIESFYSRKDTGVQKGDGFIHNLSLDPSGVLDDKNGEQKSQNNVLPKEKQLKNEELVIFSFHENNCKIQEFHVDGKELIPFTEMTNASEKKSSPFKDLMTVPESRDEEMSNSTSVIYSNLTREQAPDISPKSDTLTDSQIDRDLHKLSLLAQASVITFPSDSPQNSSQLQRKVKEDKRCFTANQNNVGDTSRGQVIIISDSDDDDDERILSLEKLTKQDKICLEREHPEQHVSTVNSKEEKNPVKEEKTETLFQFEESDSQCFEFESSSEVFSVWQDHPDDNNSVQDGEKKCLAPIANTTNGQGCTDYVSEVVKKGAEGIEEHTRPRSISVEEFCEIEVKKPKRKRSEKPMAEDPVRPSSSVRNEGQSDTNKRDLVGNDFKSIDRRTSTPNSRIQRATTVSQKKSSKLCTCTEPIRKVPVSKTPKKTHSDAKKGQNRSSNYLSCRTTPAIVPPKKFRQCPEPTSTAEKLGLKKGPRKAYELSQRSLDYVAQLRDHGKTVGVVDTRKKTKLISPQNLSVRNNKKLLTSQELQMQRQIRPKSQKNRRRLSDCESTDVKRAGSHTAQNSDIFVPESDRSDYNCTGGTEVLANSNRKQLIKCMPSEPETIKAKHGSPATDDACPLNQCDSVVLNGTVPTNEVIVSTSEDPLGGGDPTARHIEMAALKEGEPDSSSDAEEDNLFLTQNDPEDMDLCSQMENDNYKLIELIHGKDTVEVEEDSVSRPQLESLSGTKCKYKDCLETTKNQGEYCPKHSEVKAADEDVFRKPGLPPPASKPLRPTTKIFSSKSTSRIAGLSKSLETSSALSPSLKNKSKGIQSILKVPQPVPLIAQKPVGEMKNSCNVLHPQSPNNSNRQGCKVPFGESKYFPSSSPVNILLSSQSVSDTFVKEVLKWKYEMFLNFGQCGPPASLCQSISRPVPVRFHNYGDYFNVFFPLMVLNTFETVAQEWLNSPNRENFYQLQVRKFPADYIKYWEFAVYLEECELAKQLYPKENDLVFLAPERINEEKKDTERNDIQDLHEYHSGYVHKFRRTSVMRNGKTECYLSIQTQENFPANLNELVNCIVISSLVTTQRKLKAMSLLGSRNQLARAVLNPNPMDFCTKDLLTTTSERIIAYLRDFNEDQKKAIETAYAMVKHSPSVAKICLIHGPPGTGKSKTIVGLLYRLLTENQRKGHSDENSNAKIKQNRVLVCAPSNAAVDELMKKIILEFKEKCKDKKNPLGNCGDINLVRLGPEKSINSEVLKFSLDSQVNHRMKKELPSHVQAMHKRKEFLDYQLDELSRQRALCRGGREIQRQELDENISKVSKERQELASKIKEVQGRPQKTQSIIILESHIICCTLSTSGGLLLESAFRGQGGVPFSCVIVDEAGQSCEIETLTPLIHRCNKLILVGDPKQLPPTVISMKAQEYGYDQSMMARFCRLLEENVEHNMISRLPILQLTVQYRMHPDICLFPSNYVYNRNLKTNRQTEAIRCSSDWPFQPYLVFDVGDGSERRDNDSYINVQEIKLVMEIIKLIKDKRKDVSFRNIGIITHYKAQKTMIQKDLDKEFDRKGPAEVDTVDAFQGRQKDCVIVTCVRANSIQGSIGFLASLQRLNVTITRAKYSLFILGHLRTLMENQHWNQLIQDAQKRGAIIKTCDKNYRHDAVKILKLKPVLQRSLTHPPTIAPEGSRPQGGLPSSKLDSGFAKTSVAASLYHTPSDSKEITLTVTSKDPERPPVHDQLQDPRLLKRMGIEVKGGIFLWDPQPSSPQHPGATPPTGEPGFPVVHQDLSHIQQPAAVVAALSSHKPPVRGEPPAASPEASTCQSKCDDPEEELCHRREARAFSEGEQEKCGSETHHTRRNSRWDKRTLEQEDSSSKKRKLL

T1: 16 E7 19–20 peptide (human papillomavirus type 16)
T1 sequence (peptide, biotin on the N-terminus): LDLQPETTDLYCYEQL

T2: 16 E7 19–20 phospho-peptide (human papillomavirus type 16)
T2 sequence (peptide, biotin on the N-terminus; phosphothreonine at 19 and 20): LDLQPETTDLYCYEQL

B1: pRb protein (endogenous, HaCat) (protein, UniProt P06400 1-928)
chain: MPPKTPRKTAATAAAAAAEPPAPPPPPPPEEDPEQDSGPEDLPLVRLEFEETEEPDFTALCQKLKIPDHVRERAWLTWEKVSSVDGVLGGYIQKKKELWGICIFIAAVDLDEMSFTFTELQKNIEISVHKFFNLLKEIDTSTKVDNAMSRLLKKYDVLFALFSKLERTCELIYLTQPSSSISTEINSALVLKVSWITFLLAKGEVLQMEDDLVISFQLMLCVLDYFIKLSPPMLLKEPYKTAVIPINGSPRTPRRGQNRSARIAKQLENDTRIIEVLCKEHECNIDEVKNVYFKNFIPFMNSLGLVTSNGLPEVENLSKRYEEIYLKNKDLDARLFLDHDKTLQTDSIDSFETQRTPRKSNLDEEVNVIPPHTPVRTVMNTIQQLMMILNSASDQPSENLISYFNNCTVNPKESILKRVKDIGYIFKEKFAKAVGQGCVEIGSQRYKLGVRLYYRVMESMLKSEEERLSIQNFSKLLNDNIFHMSLLACALEVVMATYSRSTSQNLDSGTDLSFPWILNVLNLKAFDFYKVIESFIKAEGNLTREMIKHLERCEHRIMESLAWLSDSPLFDLIKQSKDREGPTDHLESACPLNLPLQNNHTAADMYLSPVRSPKKKGSTTRVNSTANAETQATSAFQTQKPLKSTSLSLFYKKVYRLAYLRLNTLCERLLSEHPELEHIIWTLFQHTLQNEYELMRDRHLDQIMMCSMYGICKVKNIDLKFKIIVTAYKDLPHAVQETFKRVLIKEEEYDSIIVFYNSVFMQRLKTNILQYASTRPPTLSPIPHIPRSPYKFPSSPLRIPGGNIYISPLKSPYKISEGLPTPTKMTPRSRILVSIGESFGTSEKFQKINQMVCNSDRVLKRSAEGSNPPKPLKKLRFDIEGSDEADGSKHLPGESKFQQKLAEMTSTRTRMQKQKMNDSMDTSNKEEK

Results are given in words; binding and its absence hold for the method and conditions named. Binding seen in cells or lysates may run through a third protein. Here binding means that the protein was enriched with, or labelled near, the bait; the list need not be complete.

The first experiment deals with T1, 16 E7 19–20 peptide (human papillomavirus type 16). Description: affinity purification with mass spectrometry; biotinylated peptides bound to streptavidin-conjugated beads, incubated with pre-cleared HaCat cell extracts; bound proteins identified by mass spectrometry; only the target purified.
For the molecule B1, the binding entry is on record as “binds”.

The target in another experiment is T2, 16 E7 19–20 phospho-peptide (human papillomavirus type 16). The experiment is described as above.
In the case of “AP2-μ2 adaptor protein subunit (endogenous, HaCat) (from UniProt Q96CW1 1-435)”, the binding entry was “binds”.

In the case of DDX3X (from UniProt O00571 1-662), the binding result is given as “binds”.

Regarding DDX60 (from UniProt Q8IY21 1-1712), the binding result was “binds”.

As for DLG5 (from UniProt Q8TDM6 1-1919), the binding result is reported as “binds”.

With HDAC1 (from UniProt Q13547 1-482), the binding entry was “binds”.

Take NBS1 (from UniProt O60934 1-754): the binding entry is on record as “binds”.

As for “PARD3 (endogenous, HaCat) (from UniProt Q8TEW0 1-1356)”, the binding result is “binds”.

As to “PTPN13 (endogenous, HaCat) (from UniProt Q12923 1-2485)”, the binding entry was “binds”.

On to RAD50 (from UniProt Q92878 1-1312), for which the binding entry is “binds”.

For SCRIB (from UniProt Q14160 1-1655), the binding entry is recorded as “binds”.

As to SETX (from UniProt Q7Z333 1-2677), the binding entry was “binds”.

As for B1, the binding result is on record as “binds”.
